{"source": "the supplement of paper PMC8728848", "binders": {"B1": {"name": "SJCP1084 (Schistosoma japonicum) (protein)", "chain": "MRIINLVIISTALLLINLLQTKSQANGEDTKNGTPDDPGLTKSTELKVEVQALLKDKKTNMRVKWNENLLDNTKPEYHNLRDEACELLLQIVRSVVPLSQDDGECKDVTFTKYVVGTKDGAVNVKLTITFKDSVAINQKPMDLKLKLENDFKNLQSESTLKATKPTFTVKVEKRLIPISKPQTTPPTTAKNDASKENVGDIGGEDSTVPTAAPATAASANEEKDEGDKDNKDSQHPNVLTSNVNDRNLIIALVALMILAIGVALTAAVKQR"}}, "test_in_all_cases": "glycan array binding signal (z-score within array); higher = stronger binding", "conditions_in_all_cases": "glycan notation: IUPAC condensed, linker removed", "key": {"[1]": {"biological_target": "Fuc(a1-3)GlcNAc", "in_short": "(§1)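 Arrays were curated from the Consortium for Functional Glycomics database, 3228 in total, and kept only where the protein sequence was available. Binding is expressed as a within-array Z-score. This score was averaged across arrays of the same protein sequence at different concentrations or buffers and across linkers, and negative values can be read as non-binding.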"}, "[2]": {"biological_target": "Fuc(a1-3)[Gal(b1-4)]Glc6S", "in_short": "as §1"}, "[3]": {"biological_target": "Fuc(a1-3)[Gal(b1-4)]GlcNAc", "in_short": "as §1"}, "[4]": {"biological_target": "Fuc(a1-3)[Gal(b1-4)]GlcNAc(b1-2)Man", "in_short": "as §1"}, "[5]": {"biological_target": "Fuc(a1-3)[Gal(b1-4)]GlcNAc(b1-2)Man(a1-3)[Fuc(a1-3)[Gal(b1-4)]GlcNAc(b1-2)Man(a1-6)]Man(b1-4)GlcNAc(b1-4)GlcNAc", "in_short": "as §1"}, "[6]": {"biological_target": "Fuc(a1-3)[Gal(b1-4)]GlcNAc(b1-2)Man(a1-3)[Fuc(a1-3)[Gal(b1-4)]GlcNAc(b1-2)Man(a1-6)]Man(b1-4)GlcNAc(b1-4)[Fuc(a1-6)]GlcNAc", "in_short": "as §1"}, "[7]": {"biological_target": "Fuc(a1-3)[Gal(b1-4)]GlcNAc(b1-3)Gal(b1-3)[Fuc(a1-4)]GlcNAc", "in_short": "as §1"}, "[8]": {"biological_target": "Fuc(a1-3)[Gal(b1-4)]GlcNAc(b1-3)Gal(b1-4)[Fuc(a1-3)]GlcNAc", "in_short": "as §1"}, "[9]": {"biological_target": "Fuc(a1-3)[Gal(b1-4)]GlcNAc(b1-3)Gal(b1-4)[Fuc(a1-3)]GlcNAc(b1-3)Gal(b1-4)[Fuc(a1-3)]GlcNAc", "in_short": "as §1"}, "[10]": {"biological_target": "Fuc(a1-3)[Gal(b1-4)]GlcNAc(b1-3)GalNAc", "in_short": "as §1"}, "[11]": {"biological_target": "Fuc(a1-3)[Gal(b1-4)]GlcNAc(b1-6)GalNAc", "in_short": "as §1"}, "[12]": {"biological_target": "Fuc(a1-3)[Gal(b1-4)]GlcNAc(b1-6)[Gal(b1-3)GlcNAc(b1-3)]Gal(b1-4)Glc", "in_short": "as §1"}, "[13]": {"biological_target": "Fuc(a1-3)[Gal(b1-4)]GlcNAc6S", "in_short": "as §1"}, "[14]": {"biological_target": "Fuc(a1-3)[Gal3S(b1-4)]Glc", "in_short": "as §1"}, "[15]": {"biological_target": "Fuc(a1-3)[Gal3S(b1-4)]GlcNAc", "in_short": "as §1"}, "[16]": {"biological_target": "Fuc(a1-3)[Gal3S(b1-4)]GlcNAc6S", "in_short": "as §1"}, "[17]": {"biological_target": "Fuc(a1-3)[GalNAc(b1-4)]GlcNAc", "in_short": "as §1"}, "[18]": {"biological_target": "Fuc(a1-3)[GalNAc(b1-4)]GlcNAc6S", "in_short": "as §1"}, "[19]": {"biological_target": "Fuc(a1-4)GlcNAc", "in_short": "as §1"}, "[20]": {"biological_target": "Fuc(b1-3)GlcNAc", "in_short": "as §1"}, "[21]": {"biological_target": "Gal(a1-2)Gal", "in_short": "as §1"}, "[22]": {"biological_target": "Gal(a1-3)Gal", "in_short": "as §1"}, "[23]": {"biological_target": "Gal(a1-3)Gal(b1-3)GlcNAc", "in_short": "as §1"}, "[24]": {"biological_target": "Gal(a1-3)Gal(b1-3)GlcNAc(b1-2)Man", "in_short": "as §1"}, "[25]": {"biological_target": "Gal(a1-3)Gal(b1-3)GlcNAc(b1-2)Man(a1-3)[Gal(a1-3)Gal(b1-3)GlcNAc(b1-2)Man(a1-6)]Man(b1-4)GlcNAc(b1-4)GlcNAc", "in_short": "as §1"}, "[26]": {"biological_target": "Gal(a1-3)Gal(b1-3)GlcNAc(b1-3)GalNAc", "in_short": "as §1"}, "[27]": {"biological_target": "Gal(a1-3)Gal(b1-3)GlcNAc(b1-6)GalNAc", "in_short": "as §1"}, "[28]": {"biological_target": "Gal(a1-3)Gal(b1-3)[Fuc(a1-4)]GlcNAc(b1-2)Man(a1-3)[Gal(a1-3)Gal(b1-3)[Fuc(a1-4)]GlcNAc(b1-2)Man(a1-6)]Man(b1-4)GlcNAc(b1-4)GlcNAc", "in_short": "as §1"}, "[29]": {"biological_target": "Gal(a1-3)Gal(b1-4)Glc", "in_short": "as §1"}, "[30]": {"biological_target": "Gal(a1-3)Gal(b1-4)GlcNAc", "in_short": "as §1"}}, "note": "The list shows a part of the results."}
{"binder": "B1", "values": [{"measurement": "glycan array binding signal (z-score)", "setting": "[1]", "value": -1.16}, {"measurement": "glycan array binding signal (z-score)", "setting": "[2]", "value": -0.662}, {"measurement": "glycan array binding signal (z-score)", "setting": "[3]", "value": -0.416}, {"measurement": "glycan array binding signal (z-score)", "setting": "[4]", "value": 0.155}, {"measurement": "glycan array binding signal (z-score)", "setting": "[5]", "value": -1.61}, {"measurement": "glycan array binding signal (z-score)", "setting": "[6]", "value": 1.19}, {"measurement": "glycan array binding signal (z-score)", "setting": "[7]", "value": -0.378}, {"measurement": "glycan array binding signal (z-score)", "setting": "[8]", "value": -0.624}, {"measurement": "glycan array binding signal (z-score)", "setting": "[9]", "value": 0.4}, {"measurement": "glycan array binding signal (z-score)", "setting": "[10]", "value": -0.157}, {"measurement": "glycan array binding signal (z-score)", "setting": "[11]", "value": -0.123}, {"measurement": "glycan array binding signal (z-score)", "setting": "[12]", "value": -0.702}, {"measurement": "glycan array binding signal (z-score)", "setting": "[13]", "value": -0.293}, {"measurement": "glycan array binding signal (z-score)", "setting": "[14]", "value": -0.309}, {"measurement": "glycan array binding signal (z-score)", "setting": "[15]", "value": -1.01}, {"measurement": "glycan array binding signal (z-score)", "setting": "[16]", "value": -0.255}, {"measurement": "glycan array binding signal (z-score)", "setting": "[17]", "value": 2.05}, {"measurement": "glycan array binding signal (z-score)", "setting": "[18]", "value": -0.057}, {"measurement": "glycan array binding signal (z-score)", "setting": "[19]", "value": 0.003}, {"measurement": "glycan array binding signal (z-score)", "setting": "[20]", "value": -0.731}, {"measurement": "glycan array binding signal (z-score)", "setting": "[21]", "value": 1.02}, {"measurement": "glycan array binding signal (z-score)", "setting": "[22]", "value": 0.743}, {"measurement": "glycan array binding signal (z-score)", "setting": "[23]", "value": 0.63}, {"measurement": "glycan array binding signal (z-score)", "setting": "[24]", "value": -0.775}, {"measurement": "glycan array binding signal (z-score)", "setting": "[25]", "value": -0.595}, {"measurement": "glycan array binding signal (z-score)", "setting": "[26]", "value": -0.633}, {"measurement": "glycan array binding signal (z-score)", "setting": "[27]", "value": -0.974}, {"measurement": "glycan array binding signal (z-score)", "setting": "[28]", "value": -0.179}, {"measurement": "glycan array binding signal (z-score)", "setting": "[29]", "value": -0.352}, {"measurement": "glycan array binding signal (z-score)", "setting": "[30]", "value": -0.447}]}
